According to patent US20020152485A1:
Results are given in words; binding and its absence hold for the method and conditions named. Some entries that bind do so weakly or less than the wild type.

The chains behind the UniProt entries cited, without tags or fusion partners. Where a name states a change or a piece, a line headed by the entry shows the natural chain unless it says otherwise. Residues count along the entry.
UniProt P04114, residues 28-4563: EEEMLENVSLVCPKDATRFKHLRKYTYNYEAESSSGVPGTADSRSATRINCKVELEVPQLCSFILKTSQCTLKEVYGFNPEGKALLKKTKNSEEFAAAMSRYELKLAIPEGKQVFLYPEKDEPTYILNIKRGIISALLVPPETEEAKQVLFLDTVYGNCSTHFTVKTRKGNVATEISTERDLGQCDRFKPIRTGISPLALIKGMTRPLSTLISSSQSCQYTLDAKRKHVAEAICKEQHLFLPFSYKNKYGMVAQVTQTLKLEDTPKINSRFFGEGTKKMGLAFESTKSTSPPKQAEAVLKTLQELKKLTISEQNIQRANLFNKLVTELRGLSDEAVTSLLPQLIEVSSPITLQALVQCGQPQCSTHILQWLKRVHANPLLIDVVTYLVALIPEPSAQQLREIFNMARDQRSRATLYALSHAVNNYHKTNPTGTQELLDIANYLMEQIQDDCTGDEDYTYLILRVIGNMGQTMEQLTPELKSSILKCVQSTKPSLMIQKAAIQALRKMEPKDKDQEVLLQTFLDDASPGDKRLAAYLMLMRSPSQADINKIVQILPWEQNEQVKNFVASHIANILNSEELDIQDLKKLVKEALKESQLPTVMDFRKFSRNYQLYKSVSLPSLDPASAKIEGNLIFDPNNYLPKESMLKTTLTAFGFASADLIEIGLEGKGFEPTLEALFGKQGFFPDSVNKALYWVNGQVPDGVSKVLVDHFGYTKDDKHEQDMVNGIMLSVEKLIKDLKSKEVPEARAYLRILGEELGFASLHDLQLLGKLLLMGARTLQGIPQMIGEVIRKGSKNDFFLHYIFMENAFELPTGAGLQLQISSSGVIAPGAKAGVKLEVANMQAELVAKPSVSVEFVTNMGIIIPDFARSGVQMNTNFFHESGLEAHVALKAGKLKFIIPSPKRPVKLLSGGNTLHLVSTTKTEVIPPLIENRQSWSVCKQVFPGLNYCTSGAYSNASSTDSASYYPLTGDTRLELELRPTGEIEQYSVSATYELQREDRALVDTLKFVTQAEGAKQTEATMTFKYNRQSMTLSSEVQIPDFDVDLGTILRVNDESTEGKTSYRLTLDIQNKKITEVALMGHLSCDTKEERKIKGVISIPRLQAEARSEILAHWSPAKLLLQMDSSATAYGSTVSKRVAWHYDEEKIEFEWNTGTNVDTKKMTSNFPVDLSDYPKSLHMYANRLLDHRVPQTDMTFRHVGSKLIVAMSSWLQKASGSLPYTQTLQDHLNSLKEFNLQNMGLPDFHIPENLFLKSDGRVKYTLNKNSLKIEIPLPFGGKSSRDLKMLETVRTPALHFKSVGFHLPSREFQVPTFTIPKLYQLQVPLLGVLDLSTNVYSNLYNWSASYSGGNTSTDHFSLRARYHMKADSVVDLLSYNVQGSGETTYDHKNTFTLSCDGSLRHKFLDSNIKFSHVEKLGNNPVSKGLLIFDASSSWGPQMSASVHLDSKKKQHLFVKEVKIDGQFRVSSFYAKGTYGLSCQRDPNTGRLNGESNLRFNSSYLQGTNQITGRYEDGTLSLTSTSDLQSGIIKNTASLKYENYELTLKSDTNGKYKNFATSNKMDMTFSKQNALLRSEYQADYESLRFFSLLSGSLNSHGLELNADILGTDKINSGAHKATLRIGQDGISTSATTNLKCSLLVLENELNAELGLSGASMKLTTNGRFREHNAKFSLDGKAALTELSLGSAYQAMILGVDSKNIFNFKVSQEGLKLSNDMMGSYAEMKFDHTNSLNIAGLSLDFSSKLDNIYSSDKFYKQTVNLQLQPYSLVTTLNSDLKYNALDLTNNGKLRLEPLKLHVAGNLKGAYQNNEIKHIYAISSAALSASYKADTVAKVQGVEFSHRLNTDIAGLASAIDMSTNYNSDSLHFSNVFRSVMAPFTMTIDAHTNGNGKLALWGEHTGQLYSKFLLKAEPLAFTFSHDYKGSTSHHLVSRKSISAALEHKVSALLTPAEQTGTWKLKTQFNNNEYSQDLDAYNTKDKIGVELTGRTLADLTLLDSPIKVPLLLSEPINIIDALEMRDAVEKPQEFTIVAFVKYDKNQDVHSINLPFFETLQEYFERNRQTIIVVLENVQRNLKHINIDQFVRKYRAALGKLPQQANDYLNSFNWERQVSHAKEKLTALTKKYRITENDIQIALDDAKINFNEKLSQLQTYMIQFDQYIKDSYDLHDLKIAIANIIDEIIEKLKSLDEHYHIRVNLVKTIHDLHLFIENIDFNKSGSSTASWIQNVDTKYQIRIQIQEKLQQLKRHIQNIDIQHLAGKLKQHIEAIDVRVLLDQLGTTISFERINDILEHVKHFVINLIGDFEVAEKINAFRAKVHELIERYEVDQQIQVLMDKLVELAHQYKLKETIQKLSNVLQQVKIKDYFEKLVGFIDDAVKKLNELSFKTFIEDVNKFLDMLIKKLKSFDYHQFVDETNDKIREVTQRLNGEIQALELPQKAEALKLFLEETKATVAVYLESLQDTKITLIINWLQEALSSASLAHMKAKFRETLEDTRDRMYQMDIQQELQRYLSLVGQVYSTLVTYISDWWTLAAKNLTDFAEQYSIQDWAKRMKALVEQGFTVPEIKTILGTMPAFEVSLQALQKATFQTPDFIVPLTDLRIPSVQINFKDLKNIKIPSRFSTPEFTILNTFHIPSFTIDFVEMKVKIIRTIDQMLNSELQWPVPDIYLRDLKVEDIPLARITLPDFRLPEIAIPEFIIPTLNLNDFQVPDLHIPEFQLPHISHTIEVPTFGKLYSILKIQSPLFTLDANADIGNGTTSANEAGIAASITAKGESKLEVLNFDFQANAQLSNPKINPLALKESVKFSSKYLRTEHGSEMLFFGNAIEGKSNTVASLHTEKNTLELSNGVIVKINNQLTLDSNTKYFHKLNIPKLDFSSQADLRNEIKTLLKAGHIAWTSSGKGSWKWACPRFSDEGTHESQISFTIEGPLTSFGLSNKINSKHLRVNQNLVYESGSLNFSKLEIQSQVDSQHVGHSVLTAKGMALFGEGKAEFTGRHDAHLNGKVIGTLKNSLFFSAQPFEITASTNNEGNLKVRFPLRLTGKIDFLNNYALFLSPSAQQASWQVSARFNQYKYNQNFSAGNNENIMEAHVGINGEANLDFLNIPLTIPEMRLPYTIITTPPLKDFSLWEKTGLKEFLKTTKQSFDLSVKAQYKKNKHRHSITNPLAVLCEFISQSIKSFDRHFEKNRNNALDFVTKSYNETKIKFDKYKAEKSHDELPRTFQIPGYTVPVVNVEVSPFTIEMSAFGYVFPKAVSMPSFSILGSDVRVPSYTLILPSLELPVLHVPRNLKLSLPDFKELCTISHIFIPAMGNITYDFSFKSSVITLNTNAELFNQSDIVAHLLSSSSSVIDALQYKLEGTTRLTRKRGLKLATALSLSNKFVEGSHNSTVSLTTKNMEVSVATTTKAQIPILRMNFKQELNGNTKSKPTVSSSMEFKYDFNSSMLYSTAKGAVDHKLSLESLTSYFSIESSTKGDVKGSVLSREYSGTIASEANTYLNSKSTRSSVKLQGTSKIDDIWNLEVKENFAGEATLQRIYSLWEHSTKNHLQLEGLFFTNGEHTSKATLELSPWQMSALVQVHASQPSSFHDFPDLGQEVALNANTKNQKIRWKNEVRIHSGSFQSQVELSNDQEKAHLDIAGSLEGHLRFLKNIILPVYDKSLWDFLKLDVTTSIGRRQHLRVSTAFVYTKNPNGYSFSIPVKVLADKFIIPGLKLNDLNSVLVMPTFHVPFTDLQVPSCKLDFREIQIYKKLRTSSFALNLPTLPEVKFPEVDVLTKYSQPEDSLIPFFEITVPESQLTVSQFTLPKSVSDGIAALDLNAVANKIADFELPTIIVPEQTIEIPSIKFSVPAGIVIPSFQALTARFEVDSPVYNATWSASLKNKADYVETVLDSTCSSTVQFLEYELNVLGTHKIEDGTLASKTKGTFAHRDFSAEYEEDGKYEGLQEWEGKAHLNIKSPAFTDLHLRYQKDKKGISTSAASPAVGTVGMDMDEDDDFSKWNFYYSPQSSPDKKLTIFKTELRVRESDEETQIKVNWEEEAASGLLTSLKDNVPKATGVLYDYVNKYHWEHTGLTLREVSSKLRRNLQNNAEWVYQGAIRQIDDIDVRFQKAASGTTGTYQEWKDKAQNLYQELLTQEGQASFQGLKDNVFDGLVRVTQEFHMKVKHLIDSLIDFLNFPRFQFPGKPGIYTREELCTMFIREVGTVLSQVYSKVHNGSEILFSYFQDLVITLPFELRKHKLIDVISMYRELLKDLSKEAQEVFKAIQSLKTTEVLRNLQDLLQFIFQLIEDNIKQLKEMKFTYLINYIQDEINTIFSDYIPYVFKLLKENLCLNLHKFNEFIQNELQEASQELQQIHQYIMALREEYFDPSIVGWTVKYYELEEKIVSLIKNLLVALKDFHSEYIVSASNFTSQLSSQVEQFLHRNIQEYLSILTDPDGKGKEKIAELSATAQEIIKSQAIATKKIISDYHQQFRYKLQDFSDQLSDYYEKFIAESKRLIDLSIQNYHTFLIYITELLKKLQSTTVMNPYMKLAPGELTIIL
UniProt P40222: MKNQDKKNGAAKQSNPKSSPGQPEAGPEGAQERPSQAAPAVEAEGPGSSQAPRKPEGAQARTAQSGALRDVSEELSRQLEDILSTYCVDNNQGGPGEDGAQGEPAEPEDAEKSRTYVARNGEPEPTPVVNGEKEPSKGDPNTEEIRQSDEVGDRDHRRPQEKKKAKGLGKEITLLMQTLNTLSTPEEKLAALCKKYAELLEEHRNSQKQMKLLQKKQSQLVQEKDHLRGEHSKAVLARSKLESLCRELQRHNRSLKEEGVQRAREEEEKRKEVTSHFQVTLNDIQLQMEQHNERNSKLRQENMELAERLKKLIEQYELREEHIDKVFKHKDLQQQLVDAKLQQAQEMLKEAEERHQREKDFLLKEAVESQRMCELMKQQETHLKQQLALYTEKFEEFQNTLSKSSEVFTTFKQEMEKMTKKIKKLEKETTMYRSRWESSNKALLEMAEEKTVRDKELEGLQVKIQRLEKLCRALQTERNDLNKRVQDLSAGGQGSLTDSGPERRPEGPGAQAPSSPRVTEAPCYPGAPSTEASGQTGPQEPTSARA

What was measured:
[1] = molecular target: native human low density lipoprotein (LDL) (human) (UniProt P04114); assay: affinity coelectrophoresis (ACE): 125I-LBP-3 run through LDL cast in agarose
[2] = molecular target: native human low density lipoprotein (LDL) (human) (UniProt P04114); assay: ACE self-competition: fixed cold LDL and radiolabeled LBP-3, increasing cold LBP-3
[3] = molecular target: native human low density lipoprotein (LDL) (human) (UniProt P04114); assay: plaque-lift expression screen of a rabbit aorta cDNA phage library; membranes incubated with native human LDL (4 ug/ml), detected with sheep anti-human LDL antibodies; phage-expressed protein
[4] = molecular target: native human low density lipoprotein (LDL) (human) (UniProt P04114); assay: affinity coelectrophoresis (ACE): 125I-LBP-1 run through LDL cast in agarose
[5] = molecular target: native human low density lipoprotein (LDL) (human) (UniProt P04114); assay: ACE self-competition: fixed cold LDL and radiolabeled LBP-1, increasing cold recombinant LBP-1 (6-31 uM)

Measured: binding

recombinant rabbit LBP-3 (6-His tag) (from UniProt P40222 1-546)
binds: [1] | [2] | [3]

recombinant rabbit LBP-1 (6-His tag) (from UniProt Q9CPW4 1-151)
binds: [4] | [5] | [3]
